The target in the test is T1, Itr1-GFP (S. cerevisiae) (UniProt P30605).
T1 sequence: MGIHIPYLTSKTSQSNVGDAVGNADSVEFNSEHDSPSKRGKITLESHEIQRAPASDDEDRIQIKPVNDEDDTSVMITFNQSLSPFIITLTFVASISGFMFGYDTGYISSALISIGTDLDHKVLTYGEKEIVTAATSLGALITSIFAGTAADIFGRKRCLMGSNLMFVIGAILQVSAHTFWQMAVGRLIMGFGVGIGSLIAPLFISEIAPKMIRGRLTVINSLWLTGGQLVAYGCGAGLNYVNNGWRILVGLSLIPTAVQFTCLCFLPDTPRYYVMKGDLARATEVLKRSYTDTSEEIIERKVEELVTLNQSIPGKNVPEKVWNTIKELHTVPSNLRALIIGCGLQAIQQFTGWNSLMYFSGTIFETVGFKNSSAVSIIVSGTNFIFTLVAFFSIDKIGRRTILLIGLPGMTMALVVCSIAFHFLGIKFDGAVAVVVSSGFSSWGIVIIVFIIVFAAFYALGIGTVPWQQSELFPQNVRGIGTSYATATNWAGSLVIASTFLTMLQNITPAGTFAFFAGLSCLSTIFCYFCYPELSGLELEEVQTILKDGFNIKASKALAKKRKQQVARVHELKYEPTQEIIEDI
The test is described as follows: co-IP; yeast lysate in IP buffer with 1% Triton X-100; GFP-tagged cargo bound to GFP-nanotrap resin 2 hr at 4°C; ART protein detected by blot.

These are yes or no findings as the source states them, for the method shown. Binding seen in cells or lysates may run through a third protein. Some entries that bind do so weakly or less than the wild type. Tags and fused reporters may be left off the sequences shown.

B1: Art5^WT (protein, UniProt P53244 1-586)
chain: MFSLSSLSSSGGHSEQKERERISYFDIRINSPYKDIILIQGSPLELSSIPLSGNLVISVKNEIVVKKISLRLVGRFKLEFLQVGRYKKNSSSLASLVKEKRKIFECYWDNLLVSSKGDVLVGGENAENQHNSSSGRSTSNQDMDTSGNAIFLSKRSLSSPVFNKIIRRKTHSSHRKILELPENGVTGTPFEGLRENARSRSSSSNTLNNNSHSYSNRDGSGSSYLFLMKRGNYELPFNTMLPPEVCETIEGLQSGSILYSFEAIIDGRQLWDTDLSVHTSPHGPIGSTSTSGNGMRTKNKIIIKKFKYLRILRTLSMDNLAMQEEISVGNTWRDKLQYETSIPSRAVPIGSTTPVKIKIFPFEKNIRLDRIEMALIQYYAMKDSSAQIYDDEIAVMKITHLADFGPLTDKLDVDCPFTIPDNLKQITQDCCLQDNLIRVMHKLQVRILLQRQVDGEYKNLEIKAQLPMLLFISPHLPMKGRLVLFDKHDGKIHFRPGELVPLFLTTYPAQGLTPGVELNSTTTAHLALPQPPPNYHESTNDHLMPALQPLGADSVVLTVPSYEQAQAQASASSYVTGSVPAYCDDD
modifications: partly K63-linked di-ubiquitinated at K364 in cells
For the molecule B1, the binding result is listed as “binds”.

B2: art5^K364R (protein, UniProt P53244 1-586)
chain: MFSLSSLSSSGGHSEQKERERISYFDIRINSPYKDIILIQGSPLELSSIPLSGNLVISVKNEIVVKKISLRLVGRFKLEFLQVGRYKKNSSSLASLVKEKRKIFECYWDNLLVSSKGDVLVGGENAENQHNSSSGRSTSNQDMDTSGNAIFLSKRSLSSPVFNKIIRRKTHSSHRKILELPENGVTGTPFEGLRENARSRSSSSNTLNNNSHSYSNRDGSGSSYLFLMKRGNYELPFNTMLPPEVCETIEGLQSGSILYSFEAIIDGRQLWDTDLSVHTSPHGPIGSTSTSGNGMRTKNKIIIKKFKYLRILRTLSMDNLAMQEEISVGNTWRDKLQYETSIPSRAVPIGSTTPVKIKIFPFERNIRLDRIEMALIQYYAMKDSSAQIYDDEIAVMKITHLADFGPLTDKLDVDCPFTIPDNLKQITQDCCLQDNLIRVMHKLQVRILLQRQVDGEYKNLEIKAQLPMLLFISPHLPMKGRLVLFDKHDGKIHFRPGELVPLFLTTYPAQGLTPGVELNSTTTAHLALPQPPPNYHESTNDHLMPALQPLGADSVVLTVPSYEQAQAQASASSYVTGSVPAYCDDD
Consider B2, for which the binding result is “binds”.

Source of the values: publication PMC9282857.
